# According to the supplement of paper PMC12067093, “Discovery and optimisation of a covalent ligand for TRIM25 and its application to targeted protein ubiquitination” (Chemical Science, 2025):
# Amino acid sequences for entries named in this document (tags omitted). A change or cut given only in a name is not applied to a line headed by its entry.
# UniProt Q8NDH3: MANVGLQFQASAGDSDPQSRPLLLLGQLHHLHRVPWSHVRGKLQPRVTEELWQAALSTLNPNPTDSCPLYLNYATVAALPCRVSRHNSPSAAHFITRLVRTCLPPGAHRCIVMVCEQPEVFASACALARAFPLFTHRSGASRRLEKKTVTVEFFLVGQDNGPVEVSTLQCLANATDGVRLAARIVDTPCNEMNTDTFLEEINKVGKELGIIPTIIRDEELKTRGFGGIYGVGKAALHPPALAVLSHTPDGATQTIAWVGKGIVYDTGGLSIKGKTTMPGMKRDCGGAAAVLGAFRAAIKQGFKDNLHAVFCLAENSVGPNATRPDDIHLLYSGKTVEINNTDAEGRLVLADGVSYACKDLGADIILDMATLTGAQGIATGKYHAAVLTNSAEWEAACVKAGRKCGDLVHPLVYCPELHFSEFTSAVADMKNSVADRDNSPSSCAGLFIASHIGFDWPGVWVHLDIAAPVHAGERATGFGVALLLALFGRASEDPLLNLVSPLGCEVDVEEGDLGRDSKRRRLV
# UniProt Q08J23, whole entry, looked up: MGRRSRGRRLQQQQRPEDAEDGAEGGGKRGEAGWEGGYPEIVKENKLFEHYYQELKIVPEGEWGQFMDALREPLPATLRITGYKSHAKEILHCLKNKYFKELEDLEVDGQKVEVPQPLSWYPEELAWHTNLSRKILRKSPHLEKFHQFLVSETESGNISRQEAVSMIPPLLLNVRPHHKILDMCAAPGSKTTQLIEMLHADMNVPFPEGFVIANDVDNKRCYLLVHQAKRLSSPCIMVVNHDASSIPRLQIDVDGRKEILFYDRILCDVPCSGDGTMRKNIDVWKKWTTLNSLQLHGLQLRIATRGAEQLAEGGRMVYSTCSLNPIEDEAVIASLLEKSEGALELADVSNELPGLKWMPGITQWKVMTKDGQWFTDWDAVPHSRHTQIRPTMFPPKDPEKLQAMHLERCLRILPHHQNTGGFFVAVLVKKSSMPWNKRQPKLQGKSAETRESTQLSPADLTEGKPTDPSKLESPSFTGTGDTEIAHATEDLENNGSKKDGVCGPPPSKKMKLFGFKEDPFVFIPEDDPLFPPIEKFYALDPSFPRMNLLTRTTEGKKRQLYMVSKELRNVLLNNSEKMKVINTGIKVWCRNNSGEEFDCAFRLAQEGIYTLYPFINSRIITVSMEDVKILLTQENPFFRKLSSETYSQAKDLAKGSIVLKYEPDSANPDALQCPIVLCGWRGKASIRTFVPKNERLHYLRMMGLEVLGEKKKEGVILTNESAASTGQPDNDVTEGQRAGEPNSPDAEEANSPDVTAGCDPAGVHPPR
# UniProt Q9BYT8, whole entry, looked up: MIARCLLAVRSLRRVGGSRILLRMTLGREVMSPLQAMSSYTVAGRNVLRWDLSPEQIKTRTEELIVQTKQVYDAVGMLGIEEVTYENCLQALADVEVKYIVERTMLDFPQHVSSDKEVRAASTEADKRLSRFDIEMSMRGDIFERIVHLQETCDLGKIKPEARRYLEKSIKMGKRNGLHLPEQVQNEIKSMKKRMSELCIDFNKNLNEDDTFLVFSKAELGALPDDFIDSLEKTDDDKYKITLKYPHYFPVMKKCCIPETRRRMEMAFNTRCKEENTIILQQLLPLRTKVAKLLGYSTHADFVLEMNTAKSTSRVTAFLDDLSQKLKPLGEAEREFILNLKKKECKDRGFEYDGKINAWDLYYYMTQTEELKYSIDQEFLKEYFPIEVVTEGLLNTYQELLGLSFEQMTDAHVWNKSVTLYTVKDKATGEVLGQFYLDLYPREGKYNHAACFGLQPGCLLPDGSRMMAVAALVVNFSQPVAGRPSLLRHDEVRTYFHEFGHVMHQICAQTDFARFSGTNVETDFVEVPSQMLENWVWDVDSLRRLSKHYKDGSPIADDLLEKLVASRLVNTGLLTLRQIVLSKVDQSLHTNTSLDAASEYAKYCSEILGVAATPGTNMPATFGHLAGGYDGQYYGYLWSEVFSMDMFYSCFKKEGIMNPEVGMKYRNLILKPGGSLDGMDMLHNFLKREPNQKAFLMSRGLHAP
# UniProt Q9NPE3: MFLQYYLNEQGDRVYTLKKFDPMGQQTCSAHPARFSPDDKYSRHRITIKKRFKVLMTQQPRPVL
# UniProt P46459: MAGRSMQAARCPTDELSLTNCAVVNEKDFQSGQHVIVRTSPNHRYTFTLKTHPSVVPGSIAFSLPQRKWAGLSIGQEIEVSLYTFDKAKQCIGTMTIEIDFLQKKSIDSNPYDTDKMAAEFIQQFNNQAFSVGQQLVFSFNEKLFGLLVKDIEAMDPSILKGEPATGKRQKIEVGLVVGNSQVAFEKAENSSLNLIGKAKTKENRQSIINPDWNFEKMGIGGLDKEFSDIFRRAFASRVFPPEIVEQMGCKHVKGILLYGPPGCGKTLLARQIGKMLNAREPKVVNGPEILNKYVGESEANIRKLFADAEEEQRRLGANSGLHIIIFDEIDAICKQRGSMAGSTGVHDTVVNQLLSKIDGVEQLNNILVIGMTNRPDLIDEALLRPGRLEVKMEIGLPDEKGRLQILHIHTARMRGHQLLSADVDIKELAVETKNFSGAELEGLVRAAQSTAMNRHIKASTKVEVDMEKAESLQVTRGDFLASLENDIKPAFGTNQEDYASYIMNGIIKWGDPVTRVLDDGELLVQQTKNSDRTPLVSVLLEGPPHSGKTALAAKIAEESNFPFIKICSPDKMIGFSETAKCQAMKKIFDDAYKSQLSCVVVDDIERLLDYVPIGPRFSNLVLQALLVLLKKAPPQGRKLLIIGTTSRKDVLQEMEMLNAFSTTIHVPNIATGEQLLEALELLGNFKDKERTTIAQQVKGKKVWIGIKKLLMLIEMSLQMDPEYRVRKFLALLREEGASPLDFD
# UniProt O96028: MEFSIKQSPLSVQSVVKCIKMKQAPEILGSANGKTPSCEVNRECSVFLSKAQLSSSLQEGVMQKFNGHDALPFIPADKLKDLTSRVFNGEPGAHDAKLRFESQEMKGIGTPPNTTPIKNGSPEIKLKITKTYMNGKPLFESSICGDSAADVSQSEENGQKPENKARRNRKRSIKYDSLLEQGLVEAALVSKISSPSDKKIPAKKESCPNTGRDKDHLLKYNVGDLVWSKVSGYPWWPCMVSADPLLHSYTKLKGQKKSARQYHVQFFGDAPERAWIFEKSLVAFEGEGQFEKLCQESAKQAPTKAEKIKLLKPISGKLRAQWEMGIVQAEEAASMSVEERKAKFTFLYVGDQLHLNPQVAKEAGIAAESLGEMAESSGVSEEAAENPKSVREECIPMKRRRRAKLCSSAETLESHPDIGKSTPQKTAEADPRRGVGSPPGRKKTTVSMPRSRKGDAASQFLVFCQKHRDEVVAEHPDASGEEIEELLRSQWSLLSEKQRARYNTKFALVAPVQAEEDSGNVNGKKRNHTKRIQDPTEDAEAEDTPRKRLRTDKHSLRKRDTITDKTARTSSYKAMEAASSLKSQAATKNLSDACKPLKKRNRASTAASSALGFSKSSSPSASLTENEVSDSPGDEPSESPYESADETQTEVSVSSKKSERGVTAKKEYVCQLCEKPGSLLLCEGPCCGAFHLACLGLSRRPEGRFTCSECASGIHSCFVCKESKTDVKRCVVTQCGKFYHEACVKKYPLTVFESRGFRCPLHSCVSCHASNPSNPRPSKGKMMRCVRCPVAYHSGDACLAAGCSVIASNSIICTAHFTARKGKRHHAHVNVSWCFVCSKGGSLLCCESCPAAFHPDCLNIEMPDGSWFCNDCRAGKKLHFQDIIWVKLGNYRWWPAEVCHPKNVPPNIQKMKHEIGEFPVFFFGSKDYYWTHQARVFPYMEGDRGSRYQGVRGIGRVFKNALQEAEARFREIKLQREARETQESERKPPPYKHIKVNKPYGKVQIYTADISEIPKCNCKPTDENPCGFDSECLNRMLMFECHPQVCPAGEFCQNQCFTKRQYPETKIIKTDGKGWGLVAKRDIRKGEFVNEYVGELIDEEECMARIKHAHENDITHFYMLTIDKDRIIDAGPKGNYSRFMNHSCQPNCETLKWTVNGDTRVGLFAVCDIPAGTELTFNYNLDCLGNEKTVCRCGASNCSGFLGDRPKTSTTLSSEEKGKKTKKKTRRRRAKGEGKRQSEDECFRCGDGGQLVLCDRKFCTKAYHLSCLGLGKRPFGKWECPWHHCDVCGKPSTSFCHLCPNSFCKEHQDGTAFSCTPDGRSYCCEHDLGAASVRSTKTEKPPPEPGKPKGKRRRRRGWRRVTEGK
# UniProt Q5SY16: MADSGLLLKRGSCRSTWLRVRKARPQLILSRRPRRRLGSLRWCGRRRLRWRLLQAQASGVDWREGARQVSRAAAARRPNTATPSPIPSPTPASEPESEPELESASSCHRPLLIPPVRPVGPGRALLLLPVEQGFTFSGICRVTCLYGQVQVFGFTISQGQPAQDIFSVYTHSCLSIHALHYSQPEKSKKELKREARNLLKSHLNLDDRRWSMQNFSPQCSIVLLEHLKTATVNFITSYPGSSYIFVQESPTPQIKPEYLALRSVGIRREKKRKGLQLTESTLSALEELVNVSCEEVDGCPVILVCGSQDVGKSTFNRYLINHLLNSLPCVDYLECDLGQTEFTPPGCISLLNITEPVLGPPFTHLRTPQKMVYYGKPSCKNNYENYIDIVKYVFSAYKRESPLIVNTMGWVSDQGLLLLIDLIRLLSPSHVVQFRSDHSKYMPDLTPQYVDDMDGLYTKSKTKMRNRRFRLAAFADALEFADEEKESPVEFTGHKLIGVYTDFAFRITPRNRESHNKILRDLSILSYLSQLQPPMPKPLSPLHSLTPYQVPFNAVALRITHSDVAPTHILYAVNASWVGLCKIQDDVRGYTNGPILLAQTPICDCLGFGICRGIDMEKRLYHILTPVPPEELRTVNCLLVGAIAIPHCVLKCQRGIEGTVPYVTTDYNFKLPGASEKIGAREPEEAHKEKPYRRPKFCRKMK
# UniProt Q9Y2X3: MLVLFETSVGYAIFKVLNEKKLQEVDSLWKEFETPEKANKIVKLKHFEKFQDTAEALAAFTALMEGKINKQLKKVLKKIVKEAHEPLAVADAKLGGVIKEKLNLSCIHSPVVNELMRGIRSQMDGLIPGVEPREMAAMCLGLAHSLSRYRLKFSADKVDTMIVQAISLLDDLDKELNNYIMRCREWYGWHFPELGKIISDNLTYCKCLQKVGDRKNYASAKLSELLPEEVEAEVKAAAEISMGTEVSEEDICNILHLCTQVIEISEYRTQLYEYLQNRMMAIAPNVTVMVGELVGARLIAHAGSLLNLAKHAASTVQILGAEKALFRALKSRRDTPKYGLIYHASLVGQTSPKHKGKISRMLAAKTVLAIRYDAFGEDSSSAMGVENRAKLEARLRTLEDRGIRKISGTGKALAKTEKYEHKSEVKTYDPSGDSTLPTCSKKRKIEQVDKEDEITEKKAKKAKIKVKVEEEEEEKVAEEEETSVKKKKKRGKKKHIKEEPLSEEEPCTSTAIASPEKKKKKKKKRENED
# UniProt Q8TCD5: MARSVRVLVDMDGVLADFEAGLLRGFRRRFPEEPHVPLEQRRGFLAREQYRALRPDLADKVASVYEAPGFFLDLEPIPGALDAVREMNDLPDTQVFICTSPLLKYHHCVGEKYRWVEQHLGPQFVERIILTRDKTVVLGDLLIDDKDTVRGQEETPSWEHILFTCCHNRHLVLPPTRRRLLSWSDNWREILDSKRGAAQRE
# UniProt Q8TAT6: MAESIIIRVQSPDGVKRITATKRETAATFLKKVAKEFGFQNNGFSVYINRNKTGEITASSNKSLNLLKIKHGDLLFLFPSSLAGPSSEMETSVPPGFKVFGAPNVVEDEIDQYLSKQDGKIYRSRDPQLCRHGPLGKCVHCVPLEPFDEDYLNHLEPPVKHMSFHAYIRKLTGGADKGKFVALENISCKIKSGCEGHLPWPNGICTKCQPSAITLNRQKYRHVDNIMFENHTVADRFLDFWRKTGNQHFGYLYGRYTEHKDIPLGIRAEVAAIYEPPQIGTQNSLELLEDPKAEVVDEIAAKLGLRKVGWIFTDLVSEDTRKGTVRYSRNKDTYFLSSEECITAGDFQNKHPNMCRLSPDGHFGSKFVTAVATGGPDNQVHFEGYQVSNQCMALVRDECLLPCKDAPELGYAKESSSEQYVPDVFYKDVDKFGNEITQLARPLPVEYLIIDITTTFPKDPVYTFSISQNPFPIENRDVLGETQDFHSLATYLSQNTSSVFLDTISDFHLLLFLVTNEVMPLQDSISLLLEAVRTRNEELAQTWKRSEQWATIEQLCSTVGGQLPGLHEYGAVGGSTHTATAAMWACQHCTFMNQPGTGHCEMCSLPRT
# UniProt Q15738: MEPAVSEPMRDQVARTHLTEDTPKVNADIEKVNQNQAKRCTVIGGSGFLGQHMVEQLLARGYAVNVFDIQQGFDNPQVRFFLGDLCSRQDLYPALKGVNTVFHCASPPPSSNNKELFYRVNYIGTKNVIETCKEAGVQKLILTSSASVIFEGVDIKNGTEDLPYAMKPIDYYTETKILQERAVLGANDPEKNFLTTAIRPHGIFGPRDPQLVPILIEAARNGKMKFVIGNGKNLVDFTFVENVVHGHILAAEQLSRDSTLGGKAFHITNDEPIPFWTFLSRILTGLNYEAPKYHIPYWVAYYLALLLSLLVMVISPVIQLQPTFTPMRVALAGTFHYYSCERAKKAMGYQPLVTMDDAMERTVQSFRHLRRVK
# This is one part of the list.
# Compound: CC1Cc2ccccc2N1C(=O)C1CCCN(C1)C(=O)CCl (mixture of isomers) [TRIM25 ligand 11 (diastereomer mixture)]
# Assay: probe-labelled cysteine peptide fold change vs DMSO (competition) (log2 fold change); higher = less target engagement (more negative = stronger competition)
# Settings: THP-1, incubation time: 4 h
# 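Further: competitive chemoproteomic profiling in live THP-1 cells with an iodoacetamide desthiobiotin (IA-DTB) probe, comparing probe-labelled peptide intensities in compound-treated cells against DMSO-treated controls.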
Target,probe-labelled cysteine peptide fold change (10 µM),probe-labelled cysteine peptide fold change (50 µM)
NPEPL1_Q8NDH3_504_ASEDPLLNLVSPLGCEVDVEEGDLGR (UniProt Q8NDH3),-0.151,-0.106
NPC1_O15118_1261_SCATEER (UniProt O15118),-0.127,-0.00549
NPEPL1_Q8NDH3_397_YHAAVLTNSAEWEAACVK (UniProt Q8NDH3),0.0265,0.0187
NSUN2_Q08J23_221_CYLLVHQAK (UniProt Q08J23),-0.00755,0.0474
NR2C1_P13056_200_SSNCAASTEK (UniProt P13056),-0.12,-0.163
NOL10_Q9BSC4_55_RIELIQDFEMPTVCTTIK (UniProt Q9BSC4),-0.0742,-0.132
NOTCH1_P46531_1345_CPAGFEGATCENDAR (UniProt P46531),0.198,-0.039
NLN_Q9BYT8_199_MSELCIDFNK (UniProt Q9BYT8),0.0765,-0.12
NOP10_Q9NPE3_28_FDPMGQQTCSAHPAR (UniProt Q9NPE3),-0.0449,-0.218
NOL6_Q9H6R4_486_LQAACHR (UniProt Q9H6R4),-0.0458,0.0451
NSD1_Q96L73_1185_ENSECAFR (UniProt Q96L73),0.151,0.105
NPC2_P61916_27_DCGSVDGVIK (UniProt P61916),0.0241,0.00136
NMT1_P30419_483_CPSMGAEK (UniProt P30419),-0.141,-0.138
NIT2_Q9NQR4_97_LYNTCAVFGPDGTLLAK (UniProt Q9NQR4),0.0749,0.139
NOP56_O00567_142_GLTDLSACK (UniProt O00567),0.0105,-0.0898
NOL8_Q76FK4_630_HEDPSIISMEDGSPYVNGSLGEVTPCQHAK (UniProt Q76FK4),0.00702,-0.325
NPAT_Q14207_50_EYAEHCTDEGFIPACLLSLFGK (UniProt Q14207),0.194,-0.21
NSF_P46459_599_SQLSCVVVDDIER (UniProt P46459),0.148,-0.0494
NSD2_O96028_44_ECSVFLSK (UniProt O96028),0.159,-0.142
NMD3_Q96D46_321_QLEEFIVMECSIVQDIKR (UniProt Q96D46),0.0388,0.118
NSD3_Q9BZ95_495_CNMSPVVK (UniProt Q9BZ95),-0.201,-0.444

Target,probe-labelled cysteine peptide fold change (10 µM),probe-labelled cysteine peptide fold change (50 µM)
NSMAF_Q92636_803_EGTVNIWDLTTATLMHQIPCHSGIVCDTAFSPDSR (UniProt Q92636),0.146,0.234
NOC4L_Q9BVI4_100_YHSCCNR (UniProt Q9BVI4),0.0565,0.152
NT5C3B_Q969T7_56_CPSSYNILDNSK (UniProt Q969T7),0.035,0.00944
NLRX1_Q86UT6_779_DLRDLLLHDQCQITTLR (UniProt Q86UT6),-0.173,-0.114
NLN_Q9BYT8_458_YNHAACFGLQPGCLLPDGSR (UniProt Q9BYT8),0.0507,0.016
NSMAF_Q92636_721_ICWHDNR (UniProt Q92636),0.0304,0.0732
NSF_P46459_21_CPTDELSLTNCAVVNEK (UniProt P46459),-0.046,-0.0309
NMD3_Q96D46_250_STFSVEIVPICK (UniProt Q96D46),0.0106,0.0581
NOMO2_Q5JPE7_411_IAPNTPQLADIVATGFSVCGR (UniProt Q5JPE7),0.0887,-0.00984
NRBF2_Q96F24_155_SEPAEPCIGSK (UniProt Q96F24),-0.177,-0.199
NOL9_Q5SY16_219_WSMQNFSPQCSIVLLEHLK (UniProt Q5SY16),0.0873,0.0078
NOL6_Q9H6R4_633_LIPHQVVTHLLALHADIPETCVHYVGGPLDALIQGLK (UniProt Q9H6R4),0.0255,0.169
NLRP3_Q96P20_941_LLCEGLLHPDCK (UniProt Q96P20),-0.00499,-0.0623
NOP58_Q9Y2X3_106_LNLSCIHSPVVNELMR (UniProt Q9Y2X3),0.0103,0.12
NR3C1_P04150_463_NDCIIDK (UniProt P04150),-0.275,0.0998
NT5C2_P49902_433_VTHDMDMCYGMMGSLFR (UniProt P49902),0.038,-0.0497
NMD3_Q96D46_71_YFQPPGTWIQCALESR (UniProt Q96D46),0.191,0.0902
NR2C2_P49116_153_NLTYSCR (UniProt P49116),0.108,0.165
NME7_Q9Y5B8_356_IQNAVHCTDLPEDGLLEVQYFFK (UniProt Q9Y5B8),0.0466,-0.0398
NOL9_Q5SY16_581_ITHSDVAPTHILYAVNASWVGLCK (UniProt Q5SY16),0.0829,0.1
NT5C_Q8TCD5_166_GQEETPSWEHILFTCCHNR (UniProt Q8TCD5),-0.15,-0.107

Target,probe-labelled cysteine peptide fold change (10 µM),probe-labelled cysteine peptide fold change (50 µM)
NSMCE1_Q8WV22_207_ICNICHSLLIQGQSCETCGIR (UniProt Q8WV22),-0.0916,0.0523
NPLOC4_Q8TAT6_399_DECLLPCK (UniProt Q8TAT6),0.191,0.311
NPTN_Q9Y639_218_AEDSGEYHCVYHFVSAPK (UniProt Q9Y639),-0.0949,-0.0424
NRF1_Q16656_229_ESCKPIWWPEDIPWANVR (UniProt Q16656),-0.0243,-0.0561
NKRF_O15226_37_HLSTCDGQNPPKK (UniProt O15226),0.014,-0.342
NRDC_O43847_906_LNFKPLEQEMPVQFQVVELPSGHHLCK (UniProt O43847),0.114,0.0532
NONO_Q15233_208_CSEGSFLLTTFPR (UniProt Q15233),-0.0331,0.0275
NSUN2_Q08J23_235_LSSPCIMVVNHDASSIPR (UniProt Q08J23),0.071,-0.0234
NOL9_Q5SY16_379_MVYYGKPSCK (UniProt Q5SY16),-0.221,-0.163
NPLOC4_Q8TAT6_188_FVALENISCK (UniProt Q8TAT6),-0.00228,-0.0644
NMD3_Q96D46_214+218_MVEFLQCTVPCR (UniProt Q96D46),-0.0897,-0.0864
NNT_Q13423_936_EANSIIITPGYGLCAAK (UniProt Q13423),-0.251,0.251
NSUN2_Q08J23_235_RLSSPCIMVVNHDASSIPR (UniProt Q08J23),0.0184,-0.0595
NOL6_Q9H6R4_1034_QAVDSPAASFCR (UniProt Q9H6R4),0.202,-0.0969
NSD2_O96028_38_TPSCEVNR (UniProt O96028),0.0182,-0.139
NPM3_O75607_79_VEEEDDAEHVLALTMLCLTEGAKDECNVVEVVAR (UniProt O75607),-0.083,0.00371
NT5C_Q8TCD5_98_EMNDLPDTQVFICTSPLLK (UniProt Q8TCD5),-0.0445,-0.197
NSDHL_Q15738_86_FFLGDLCSR (UniProt Q15738),0.0494,-0.19
NSDHL_Q15738_40_RCTVIGGSGFLGQHMVEQLLAR (UniProt Q15738),-0.231,0.024
NSUN5P1_Q3KNT7_77_ALCHALTFPSLQR (UniProt Q3KNT7),-0.17,-0.0172
NOP58_Q9Y2X3_205_IISDNLTYCK (UniProt Q9Y2X3),0.063,0.067

Target,probe-labelled cysteine peptide fold change (10 µM),probe-labelled cysteine peptide fold change (50 µM)
NOTCH1_P46531_1425_FNGLLCHILDYSFGGGAGR (UniProt P46531),-0.00448,0.0732
NLRC5_Q86WI3_1671_RLEELMLGCNALGDPTALGLAQELPQHLR (UniProt Q86WI3),0.0768,-0.145
NSUN2_Q08J23_93_EILHCLK (UniProt Q08J23),0.0809,0.0592
NSDHL_Q15738_40_CTVIGGSGFLGQHMVEQLLAR (UniProt Q15738),0.0458,-0.189
NSRP1_Q9H0G5_232_CILQTDVK (UniProt Q9H0G5),0.167,-0.0939
NPLOC4_Q8TAT6_341_DTYFLSSEECITAGDFQNK (UniProt Q8TAT6),0.13,0.142
NOTCH1_P46531_1293_VNDFHCECR (UniProt P46531),0.0147,-0.0613
NNT_Q13423_1073_KTCDALQAK (UniProt Q13423),-0.208,-0.287
NPHP4_O75161_56_QGVLEVLSEVECHLR (UniProt O75161),0.245,0.0593
NSD1_Q96L73_2077_CGAPNCSGFLGVRPK (UniProt Q96L73),-0.0849,0.0745
NSUN5_Q96P11_308_YHEVHYILLDPSCSGSGMPSR (UniProt Q96P11),-0.725,-0.0597
NSL1_Q96IY1_136_ILECVIK (UniProt Q96IY1),0.0522,0.0516
NOP9_Q86U38_138_TVACHR (UniProt Q86U38),0.12,0.201
NOCT_Q9UK39_165_DNFVQCPVEALKWEER (UniProt Q9UK39),-0.00173,-0.4
NSUN2_Q08J23_599_NNSGEEFDCAFR (UniProt Q08J23),0.0552,0.0242
NSD2_O96028_899_WWPAEVCHPK (UniProt O96028),0.0454,0.00563
NSDHL_Q15738_132_NVIETCK (UniProt Q15738),0.0723,0.0879
NSD1_Q96L73_2508_GCVSDPLQTSGK (UniProt Q96L73),-0.0099,-0.228
